Measured values reported in the supplement of paper PMC6411743.
± gives the standard deviation of the averaged measurements. This is one part of the list.

Chains of the proteins cited; added tags and fusions are not shown. Lines headed by an entry give the natural chain unless they say otherwise; changes in a name come on top.
UniProt P51148: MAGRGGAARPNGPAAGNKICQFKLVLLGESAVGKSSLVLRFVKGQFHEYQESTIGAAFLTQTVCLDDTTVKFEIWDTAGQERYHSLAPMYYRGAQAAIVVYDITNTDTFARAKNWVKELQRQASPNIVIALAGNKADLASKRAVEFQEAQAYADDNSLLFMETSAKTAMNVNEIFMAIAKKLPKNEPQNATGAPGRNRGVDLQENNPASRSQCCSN
UniProt P56182: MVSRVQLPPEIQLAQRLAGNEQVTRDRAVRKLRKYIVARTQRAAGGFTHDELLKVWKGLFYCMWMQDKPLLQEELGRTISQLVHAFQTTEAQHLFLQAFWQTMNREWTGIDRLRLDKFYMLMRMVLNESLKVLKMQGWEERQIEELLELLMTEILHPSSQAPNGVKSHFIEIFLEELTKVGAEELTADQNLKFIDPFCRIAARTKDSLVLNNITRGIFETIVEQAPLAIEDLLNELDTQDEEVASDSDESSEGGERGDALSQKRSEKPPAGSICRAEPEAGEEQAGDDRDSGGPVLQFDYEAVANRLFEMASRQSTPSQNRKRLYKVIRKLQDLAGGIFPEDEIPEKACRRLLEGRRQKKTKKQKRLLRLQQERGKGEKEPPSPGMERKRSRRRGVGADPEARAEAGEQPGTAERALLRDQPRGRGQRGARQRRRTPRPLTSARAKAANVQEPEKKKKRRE
UniProt P55273: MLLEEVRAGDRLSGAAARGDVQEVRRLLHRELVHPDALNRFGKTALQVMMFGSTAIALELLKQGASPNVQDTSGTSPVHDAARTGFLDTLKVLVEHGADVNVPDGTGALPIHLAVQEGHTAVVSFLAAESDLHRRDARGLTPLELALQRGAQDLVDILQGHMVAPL
UniProt P61201: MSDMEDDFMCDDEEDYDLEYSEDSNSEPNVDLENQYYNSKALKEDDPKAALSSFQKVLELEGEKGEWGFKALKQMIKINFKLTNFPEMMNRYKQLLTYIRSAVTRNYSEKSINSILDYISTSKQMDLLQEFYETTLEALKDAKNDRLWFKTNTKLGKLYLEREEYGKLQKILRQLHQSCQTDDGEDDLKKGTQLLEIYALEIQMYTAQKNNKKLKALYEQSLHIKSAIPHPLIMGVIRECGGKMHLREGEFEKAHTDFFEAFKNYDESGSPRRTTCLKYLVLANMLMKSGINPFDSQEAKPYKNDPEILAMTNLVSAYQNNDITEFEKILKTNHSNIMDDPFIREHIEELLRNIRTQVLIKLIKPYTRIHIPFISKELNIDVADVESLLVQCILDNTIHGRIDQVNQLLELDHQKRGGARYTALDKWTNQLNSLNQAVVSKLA
UniProt P50613: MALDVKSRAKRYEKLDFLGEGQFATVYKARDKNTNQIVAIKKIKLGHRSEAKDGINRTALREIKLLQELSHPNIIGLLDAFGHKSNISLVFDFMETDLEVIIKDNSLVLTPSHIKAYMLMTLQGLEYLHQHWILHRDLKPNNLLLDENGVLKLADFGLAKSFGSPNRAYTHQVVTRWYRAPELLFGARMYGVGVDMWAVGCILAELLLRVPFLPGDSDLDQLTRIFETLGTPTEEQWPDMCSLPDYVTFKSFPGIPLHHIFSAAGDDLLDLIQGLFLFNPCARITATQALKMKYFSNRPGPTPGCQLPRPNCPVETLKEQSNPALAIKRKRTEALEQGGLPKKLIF
UniProt P55347: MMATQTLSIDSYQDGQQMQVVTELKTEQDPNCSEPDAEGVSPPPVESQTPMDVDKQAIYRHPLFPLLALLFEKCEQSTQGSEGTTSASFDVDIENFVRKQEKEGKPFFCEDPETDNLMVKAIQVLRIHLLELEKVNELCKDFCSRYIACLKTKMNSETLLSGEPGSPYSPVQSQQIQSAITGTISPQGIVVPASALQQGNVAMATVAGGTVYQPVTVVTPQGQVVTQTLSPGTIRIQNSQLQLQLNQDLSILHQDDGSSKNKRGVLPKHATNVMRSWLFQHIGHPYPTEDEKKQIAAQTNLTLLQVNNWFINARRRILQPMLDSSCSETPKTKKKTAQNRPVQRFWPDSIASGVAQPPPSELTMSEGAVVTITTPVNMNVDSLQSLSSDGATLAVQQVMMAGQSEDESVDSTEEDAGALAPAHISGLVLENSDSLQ
UniProt P61106, whole entry, looked up: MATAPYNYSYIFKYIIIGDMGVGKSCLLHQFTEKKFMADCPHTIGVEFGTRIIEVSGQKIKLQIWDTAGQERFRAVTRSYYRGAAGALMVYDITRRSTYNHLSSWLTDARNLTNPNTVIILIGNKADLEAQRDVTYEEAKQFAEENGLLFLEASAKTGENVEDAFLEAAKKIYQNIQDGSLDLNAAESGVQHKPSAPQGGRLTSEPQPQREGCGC
UniProt P61088: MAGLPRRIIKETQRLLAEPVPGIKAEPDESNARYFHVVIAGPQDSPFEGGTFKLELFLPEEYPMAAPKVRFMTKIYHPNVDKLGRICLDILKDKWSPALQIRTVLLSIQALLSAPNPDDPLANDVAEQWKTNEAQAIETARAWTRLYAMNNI
UniProt P52888, whole entry: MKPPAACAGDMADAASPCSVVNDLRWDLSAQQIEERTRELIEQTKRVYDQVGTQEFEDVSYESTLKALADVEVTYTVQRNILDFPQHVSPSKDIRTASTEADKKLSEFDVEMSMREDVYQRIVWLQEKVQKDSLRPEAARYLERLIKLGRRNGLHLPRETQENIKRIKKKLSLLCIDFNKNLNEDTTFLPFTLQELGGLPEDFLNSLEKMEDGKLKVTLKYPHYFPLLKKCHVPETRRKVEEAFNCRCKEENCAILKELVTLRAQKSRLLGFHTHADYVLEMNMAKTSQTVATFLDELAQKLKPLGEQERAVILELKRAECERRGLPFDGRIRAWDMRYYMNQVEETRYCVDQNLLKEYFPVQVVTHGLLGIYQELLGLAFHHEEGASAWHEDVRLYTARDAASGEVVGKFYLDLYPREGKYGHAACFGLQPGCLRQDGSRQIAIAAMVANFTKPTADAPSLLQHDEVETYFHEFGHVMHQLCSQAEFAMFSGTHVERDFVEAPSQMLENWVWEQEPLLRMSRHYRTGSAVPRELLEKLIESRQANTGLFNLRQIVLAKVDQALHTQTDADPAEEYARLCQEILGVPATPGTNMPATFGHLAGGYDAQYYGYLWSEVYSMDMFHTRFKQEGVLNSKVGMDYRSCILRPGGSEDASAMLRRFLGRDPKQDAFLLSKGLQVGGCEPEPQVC
UniProt P61163, whole entry: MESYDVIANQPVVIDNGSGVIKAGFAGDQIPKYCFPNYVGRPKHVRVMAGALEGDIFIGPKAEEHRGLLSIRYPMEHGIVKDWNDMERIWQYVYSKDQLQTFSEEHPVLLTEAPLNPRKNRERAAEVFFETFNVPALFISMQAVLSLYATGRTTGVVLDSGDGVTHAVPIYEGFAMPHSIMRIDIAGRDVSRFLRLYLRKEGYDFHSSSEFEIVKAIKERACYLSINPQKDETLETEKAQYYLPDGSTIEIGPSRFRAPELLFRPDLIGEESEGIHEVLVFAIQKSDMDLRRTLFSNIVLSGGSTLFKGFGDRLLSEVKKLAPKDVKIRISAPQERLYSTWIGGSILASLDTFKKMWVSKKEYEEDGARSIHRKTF
UniProt P51149, whole entry: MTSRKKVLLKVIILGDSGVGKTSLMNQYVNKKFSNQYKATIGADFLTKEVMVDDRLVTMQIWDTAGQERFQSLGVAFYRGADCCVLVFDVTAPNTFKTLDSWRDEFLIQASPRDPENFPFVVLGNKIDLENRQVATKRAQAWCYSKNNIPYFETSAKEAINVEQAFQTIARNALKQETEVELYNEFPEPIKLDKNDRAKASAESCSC
UniProt P86790: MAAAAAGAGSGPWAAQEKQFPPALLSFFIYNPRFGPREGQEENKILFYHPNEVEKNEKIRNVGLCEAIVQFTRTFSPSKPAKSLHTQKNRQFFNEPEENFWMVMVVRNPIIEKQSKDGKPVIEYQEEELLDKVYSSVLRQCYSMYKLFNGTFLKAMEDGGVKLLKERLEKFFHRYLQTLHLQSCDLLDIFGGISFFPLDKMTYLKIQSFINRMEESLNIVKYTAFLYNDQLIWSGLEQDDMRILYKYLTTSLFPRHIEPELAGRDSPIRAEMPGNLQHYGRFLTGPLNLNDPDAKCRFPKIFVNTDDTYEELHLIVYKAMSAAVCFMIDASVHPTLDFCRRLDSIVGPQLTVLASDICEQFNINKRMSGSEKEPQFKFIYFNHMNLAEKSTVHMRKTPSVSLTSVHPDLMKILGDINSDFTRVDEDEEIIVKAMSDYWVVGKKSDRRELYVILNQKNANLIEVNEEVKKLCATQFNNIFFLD
UniProt P86791: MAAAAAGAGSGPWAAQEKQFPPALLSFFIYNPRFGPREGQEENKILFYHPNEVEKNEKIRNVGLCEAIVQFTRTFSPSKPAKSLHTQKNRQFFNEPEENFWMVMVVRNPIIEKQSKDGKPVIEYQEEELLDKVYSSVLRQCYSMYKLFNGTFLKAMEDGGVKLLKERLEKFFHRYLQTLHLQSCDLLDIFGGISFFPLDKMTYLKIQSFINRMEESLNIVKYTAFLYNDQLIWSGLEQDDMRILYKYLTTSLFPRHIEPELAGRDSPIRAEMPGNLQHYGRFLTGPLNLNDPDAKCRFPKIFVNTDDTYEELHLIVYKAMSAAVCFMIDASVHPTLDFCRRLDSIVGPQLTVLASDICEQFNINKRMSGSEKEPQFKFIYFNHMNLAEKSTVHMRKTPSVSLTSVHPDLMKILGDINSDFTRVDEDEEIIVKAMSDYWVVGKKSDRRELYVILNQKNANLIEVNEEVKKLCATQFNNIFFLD

Compound: Nc1nc2c(ncn2[C@@H]2O[C@H](COP(=O)(O)OP(=O)(O)OP(=O)(O)O)[C@@H](O)[C@H]2O)c(=O)[nH]1 [guanosine triphosphate]
Assay: NP40-soluble protein abundance relative to vehicle (solubility fold change) (ratio); higher = more soluble protein in presence of GTP
Summary of the method: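 Data come from three independent experiments in which Dounce-homogenised Jurkat crude lysate was treated at eight concentrations from 0.1 to 10 mM. Treatment ran 10 min at room temperature and then 3 min at 37 °C, after which 0.8% NP40 and benzonase were added for 60 min at 4 °C before ultracentrifugation. The supernatant underwent TMT labelling and LC-MS/MS, and vsn-normalised intensities were expressed as fold change against the detergent-processed vehicle in each replicate.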

| Target | NP40-soluble protein abundance (concentration: 0.1mM) | NP40-soluble protein abundance (concentration: 0.5mM) | NP40-soluble protein abundance (concentration: 1mM) | NP40-soluble protein abundance (concentration: 2mM) | NP40-soluble protein abundance (concentration: 4mM) | NP40-soluble protein abundance (concentration: 6mM) | NP40-soluble protein abundance (concentration: 8mM) | NP40-soluble protein abundance (concentration: 10mM) |
| --- | --- | --- | --- | --- | --- | --- | --- | --- |
| UniProt P51148 and related entries | 0.87 ± 0.097 | 0.944 ± 0.058 | 0.808 ± 0.064 | 0.829 ± 0.018 | 0.772 ± 0.029 | 0.826 ± 0.024 | 0.734 ± 0.076 | 0.795 ± 0.069 |
| RRP1 (UniProt P56182) | 1.03 ± 0.044 | 0.968 ± 0.014 | 1.03 ± 0.037 | 1.04 ± 0.055 | 1.07 ± 0.042 | 1.02 ± 0.074 | 1.04 ± 0.037 | 1.07 ± 0.03 |
| CDKN2D (UniProt P55273) | 0.954 ± 0.083 | 0.891 ± 0.14 | 0.967 ± 0.077 | 0.97 ± 0.1 | 0.903 ± 0.093 | 0.935 ± 0.13 | 0.844 ± 0.14 | 0.895 ± 0.047 |
| UniProt P61201 and related entries | 0.983 ± 0.068 | 0.973 ± 0.06 | 0.995 ± 0.045 | 0.967 ± 0.058 | 0.986 ± 0.053 | 0.97 ± 0.07 | 0.999 ± 0.072 | 0.953 ± 0.059 |
| P62158 (UniProt P0DP23) | 0.715 ± 0.11 | 0.763 ± 0.14 | 0.991 ± 0.17 | 1.12 ± 0.19 | 1.09 ± 0.21 | 1.15 ± 0.24 | 0.939 ± 0.14 | 1.14 ± 0.11 |
| RPL10A (UniProt P62906) | 0.9486 ± 0.0092 | 0.959 ± 0.017 | 0.97 ± 0.022 | 0.828 ± 0.059 | 0.682 ± 0.079 | 0.642 ± 0.075 | 0.521 ± 0.069 | 0.569 ± 0.078 |
| UniProt P50613 | 1.02 ± 0.035 | 1.03 ± 0.046 | 0.952 ± 0.018 | 0.976 ± 0.03 | 0.981 ± 0.029 | 0.976 ± 0.035 | 0.971 ± 0.04 | 0.95 ± 0.022 |
| UniProt P55347 and related entries | 0.953 ± 0.1 | 0.959 ± 0.11 | 1.01 ± 0.099 | 0.937 ± 0.038 | 0.913 ± 0.068 | 0.935 ± 0.096 | 0.958 ± 0.091 | 0.961 ± 0.077 |
| UniProt P61106 | 0.936 ± 0.034 | 0.97 ± 0.016 | 0.927 ± 0.043 | 0.913 ± 0.036 | 0.931 ± 0.052 | 0.91 ± 0.063 | 0.91 ± 0.062 | 0.884 ± 0.055 |
| UniProt P61088 | 0.948 ± 0.023 | 0.926 ± 0.043 | 0.956 ± 0.048 | 0.923 ± 0.027 | 0.904 ± 0.024 | 0.904 ± 0.05 | 0.827 ± 0.11 | 0.874 ± 0.078 |
| THOP1 (UniProt P52888) | 1.02 ± 0.053 | 1.02 ± 0.045 | 0.923 ± 0.033 | 0.912 ± 0.058 | 0.898 ± 0.041 | 0.889 ± 0.033 | 0.854 ± 0.023 | 0.842 ± 0.083 |
| UniProt P62269 | 0.958 ± 0.095 | 0.912 ± 0.11 | 0.982 ± 0.15 | 0.934 ± 0.19 | 0.862 ± 0.22 | 0.811 ± 0.24 | 0.731 ± 0.2 | 0.83 ± 0.26 |
| UniProt P61163 | 1.05 ± 0.086 | 1.13 ± 0.14 | 1.04 ± 0.12 | 1.13 ± 0.21 | 1.15 ± 0.16 | 1.12 ± 0.19 | 1.07 ± 0.11 | 1.07 ± 0.13 |
| UniProt P51149 | 0.964 ± 0.027 | 0.95 ± 0.029 | 0.895 ± 0.053 | 0.858 ± 0.049 | 0.843 ± 0.069 | 0.849 ± 0.048 | 0.82 ± 0.093 | 0.803 ± 0.086 |
| P86790 and related entries (UniProt P86791+P86790) | 1.06 ± 0.015 | 1.06 ± 0.072 | 1.03 ± 0.063 | 0.99 ± 0.038 | 1.01 ± 0.068 | 0.948 ± 0.038 | 0.943 ± 0.029 | 0.924 ± 0.0097 |

Laid out differently: results already given.
Target,NP40-soluble protein abundance (concentration: 0.1mM),NP40-soluble protein abundance (concentration: 0.5mM),NP40-soluble protein abundance (concentration: 1mM),NP40-soluble protein abundance (concentration: 2mM),NP40-soluble protein abundance (concentration: 4mM),NP40-soluble protein abundance (concentration: 6mM),NP40-soluble protein abundance (concentration: 8mM),NP40-soluble protein abundance (concentration: 10mM)
UniProt P50613,1.02 ± 0.035,1.03 ± 0.046,0.952 ± 0.018,0.976 ± 0.03,0.981 ± 0.029,0.976 ± 0.035,0.971 ± 0.04,0.95 ± 0.022
THOP1 (UniProt P52888),1.02 ± 0.053,1.02 ± 0.045,0.923 ± 0.033,0.912 ± 0.058,0.898 ± 0.041,0.889 ± 0.033,0.854 ± 0.023,0.842 ± 0.083
